These are yes or no findings as the source states them, for the method shown. Some binding calls cover weakened binding; strength is not graded here.
T1: Recombinant Human IL-17 (human, UniProt Q16552 20-155, limits assumed)
T1 sequence (looked up): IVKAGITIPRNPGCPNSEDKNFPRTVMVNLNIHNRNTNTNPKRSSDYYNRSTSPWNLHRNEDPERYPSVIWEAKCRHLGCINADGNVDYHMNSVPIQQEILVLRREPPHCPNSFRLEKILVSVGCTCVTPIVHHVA

The chains behind the UniProt entries cited, without tags or fusion partners. Residues count along the entry.
UniProt P35225, residues 35-146: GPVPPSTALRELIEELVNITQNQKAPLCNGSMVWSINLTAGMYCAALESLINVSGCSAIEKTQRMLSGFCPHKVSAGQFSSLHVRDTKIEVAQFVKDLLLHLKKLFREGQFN

B1: DVD2166 (bispecific antibody)
VH: EVQLVQSGAEVKKPGASVKVSCKASGYTFTTYGVSWVRQAPGQGLEWMGEIYPGNYNTYYNEKFRGRVTMTTDTSTSTAYMELRSLRSDDTAVYYCARWRTSYFSDYGYFDYWGQGTTVTVSSASTKGPEVQLVQSGAEVKKPGSSVKVSCKASGYTFTDYEIHWVRQAPGQGLEWMGVNDPESGGTFYNQKFDGRVTLTADESTSTAYMELSSLRSEDTAVYYCTRYSKWDSFDGMDYWGQGTTVTVSS
VL: DVVMTQSPLSLPVTLGQPASISCRSSQSLVHSHGNTYLHWYQQRPGQSPRLLIYTVSNRFSGVPDRFSGSGSGTDFTLKISRVEAEDVGVYYCSQSTHVPYTFGGGTKVEIKRTVAAPDIQMTQSPSSLSASVGDRVTITCRASSGIISYIDWFQQKPGKAPKRLIYATFDLASGVPSRFSGSGSGTDYTLTISSLQPEDFATYYCRQVGSYPETFGQGTKLEIKR
notes: DVD-Ig; also called DVD2166H; DVD2166L
B2: DVD2167 (bispecific antibody)
VH: EVQLVQSGAEVKKPGSSVKVSCKASGYTFTDYEIHWVRQAPGQGLEWMGVNDPESGGTFYNQKFDGRVTLTADESTSTAYMELSSLRSEDTAVYYCTRYSKWDSFDGMDYWGQGTTVTVSSASTKGPEVQLVQSGAEVKKPGASVKVSCKASGYTFTTYGVSWVRQAPGQGLEWMGEIYPGNYNTYYNEKFRGRVTMTTDTSTSTAYMELRSLRSDDTAVYYCARWRTSYFSDYGYFDYWGQGTTVTVSS
VL: DIQMTQSPSSLSASVGDRVTITCRASSGIISYIDWFQQKPGKAPKRLIYATFDLASGVPSRFSGSGSGTDYTLTISSLQPEDFATYYCRQVGSYPETFGQGTKLEIKRTVAAPDVVMTQSPLSLPVTLGQPASISCRSSQSLVHSHGNTYLHWYQQRPGQSPRLLIYTVSNRFSGVPDRFSGSGSGTDFTLKISRVEAEDVGVYYCSQSTHVPYTFGGGTKVEIKR
notes: DVD-Ig; also called DVD2167H; DVD2167L
B3: DVD2168 (bispecific antibody)
VH: B1 VH
VL: DVVMTQSPLSLPVTLGQPASISCRSSQSLVHSHGNTYLHWYQQRPGQSPRLLIYTVSNRFSGVPDRFSGSGSGTDFTLKISRVEAEDVGVYYCSQSTHVPYTFGGGTKVEIKRTVAAPSVFIFPPDIQMTQSPSSLSASVGDRVTITCRASSGIISYIDWFQQKPGKAPKRLIYATFDLASGVPSRFSGSGSGTDYTLTISSLQPEDFATYYCRQVGSYPETFGQGTKLEIKR
notes: DVD-Ig; also called DVD2168H; DVD2168L
B4: DVD2171 (bispecific antibody)
VH: EVQLVQSGAEVKKPGSSVKVSCKASGYTFTDYEIHWVRQAPGQGLEWMGVNDPESGGTFYNQKFDGRVTLTADESTSTAYMELSSLRSEDTAVYYCTRYSKWDSFDGMDYWGQGTTVTVSSASTKGPSVFPLAPEVQLVQSGAEVKKPGASVKVSCKASGYTFTTYGVSWVRQAPGQGLEWMGEIYPGNYNTYYNEKFRGRVTMTTDTSTSTAYMELRSLRSDDTAVYYCARWRTSYFSDYGYFDYWGQGTTVTVSS
VL: B2 VL
notes: DVD-Ig; also called DVD2171H; DVD2171L
B5: DVD2179 (bispecific antibody)
VH: EVQLVQSGAEVKKPGESVKISCKASGGSFRSYGISWVRQAPGQGLEWMGGITHFFGITDYAQKFQGRVTITADESTTTAYMELSGLTSDDTAVYYCAREPNDFWNGYYDTHDFDSWGQGTTVTVSSASTKGPEVQLVQSGAEVKKPGASVKVSCKASGYTFTTYGVSWVRQAPGQGLEWMGEIYPGNYNTYYNEKFRGRVTMTTDTSTSTAYMELRSLRSDDTAVYYCARWRTSYFSDYGYFDYWGQGTTVTVSS
VL: EIVLTQSPDFQSVTPKEKVTITCRASQNIGSELHWYQQKPDQSPKLLIKYASHSISGVPSRFSGSGSGTDFTLTINGLEAEDAATYYCHQSDTLPHTFGQGTKVDIKRTVAAPDVVMTQSPLSLPVTLGQPASISCRSSQSLVHSHGNTYLHWYQQRPGQSPRLLIYTVSNRFSGVPDRFSGSGSGTDFTLKISRVEAEDVGVYYCSQSTHVPYTFGGGTKVEIKR
notes: DVD-Ig; also called DVD2179H; DVD2179L
B6: DVD2181 (bispecific antibody)
VH: B5 VH
VL: EIVLTQSPDFQSVTPKEKVTITCRASQNIGSELHWYQQKPDQSPKLLIKYASHSISGVPSRFSGSGSGTDFTLTINGLEAEDAATYYCHQSDTLPHTFGQGTKVDIKRTVAAPSVFIFPPDVVMTQSPLSLPVTLGQPASISCRSSQSLVHSHGNTYLHWYQQRPGQSPRLLIYTVSNRFSGVPDRFSGSGSGTDFTLKISRVEAEDVGVYYCSQSTHVPYTFGGGTKVEIKR
notes: DVD-Ig; also called DVD2181H; DVD2181L
B7: DVD2183 (bispecific antibody)
VH: EVQLVQSGAEVKKPGESVKISCKASGGSFRSYGISWVRQAPGQGLEWMGGITHFFGITDYAQKFQGRVTITADESTTTAYMELSGLTSDDTAVYYCAREPNDFWNGYYDTHDFDSWGQGTTVTVSSASTKGPSVFPLAPEVQLVQSGAEVKKPGASVKVSCKASGYTFTTYGVSWVRQAPGQGLEWMGEIYPGNYNTYYNEKFRGRVTMTTDTSTSTAYMELRSLRSDDTAVYYCARWRTSYFSDYGYFDYWGQGTTVTVSS
VL: B5 VL
notes: DVD-Ig; also called DVD2183H; DVD2183L
B8: DVD2161 (bispecific antibody)
VH: EVQLVQSGAEVKKPGESVKISCKASGGSFRSYGISWVRQAPGQGLEWMGGITHFFGITDYAQKFQGRVTITADESTTTAYMELSGLTSDDTAVYYCAREPNDFWNGYYDTHDFDSWGQGTTVTVSSASTKGPEVTLRESGPGLVKPTQTLTLTCTLYGFSLSTSDMGVDWIRQPPGKGLEWLAHIWWDDVKRYNPALKSRLTISKDTSKNQVVLKLTSVDPVDTATYYCARTVSSGYIYYAMDYWGQGTLVTVSS
VL: EIVLTQSPDFQSVTPKEKVTITCRASQNIGSELHWYQQKPDQSPKLLIKYASHSISGVPSRFSGSGSGTDFTLTINGLEAEDAATYYCHQSDTLPHTFGQGTKVDIKRTVAAPDIQMTQSPSSLSASVGDRVTISCRASQDIRNYLNWYQQKPGKAPKLLIFYTSKLHSGVPSRFSGSGSGTDYTLTISSLQPEDIATYYCQQGLTPPLTFGGGTKVEIKR
notes: DVD-Ig; also called DVD2161H; DVD2161L
B9: DVD2164 (bispecific antibody)
VH: EVTLRESGPGLVKPTQTLTLTCTLYGFSLSTSDMGVDWIRQPPGKGLEWLAHIWWDDVKRYNPALKSRLTISKDTSKNQVVLKLTSVDPVDTATYYCARTVSSGYIYYAMDYWGQGTLVTVSSASTKGPSVFPLAPEVQLVQSGAEVKKPGESVKISCKASGGSFRSYGISWVRQAPGQGLEWMGGITHFFGITDYAQKFQGRVTITADESTTTAYMELSGLTSDDTAVYYCAREPNDFWNGYYDTHDFDSWGQGTTVTVSS
VL: DIQMTQSPSSLSASVGDRVTISCRASQDIRNYLNWYQQKPGKAPKLLIFYTSKLHSGVPSRFSGSGSGTDYTLTISSLQPEDIATYYCQQGLTPPLTFGGGTKVEIKRTVAAPEIVLTQSPDFQSVTPKEKVTITCRASQNIGSELHWYQQKPDQSPKLLIKYASHSISGVPSRFSGSGSGTDFTLTINGLEAEDAATYYCHQSDTLPHTFGQGTKVDIKR
notes: DVD-Ig; also called DVD2164H; DVD2164L
B10: DVD2165 (bispecific antibody)
VH: EVQLVQSGAEVKKPGESVKISCKASGGSFRSYGISWVRQAPGQGLEWMGGITHFFGITDYAQKFQGRVTITADESTTTAYMELSGLTSDDTAVYYCAREPNDFWNGYYDTHDFDSWGQGTTVTVSSASTKGPSVFPLAPEVTLRESGPGLVKPTQTLTLTCTLYGFSLSTSDMGVDWIRQPPGKGLEWLAHIWWDDVKRYNPALKSRLTISKDTSKNQVVLKLTSVDPVDTATYYCARTVSSGYIYYAMDYWGQGTLVTVSS
VL: B8 VL
notes: DVD-Ig; also called DVD2165H; DVD2165L

molecular target: Recombinant Human IL-13 (human, UniProt P35225 35-146, limits assumed); experiment: SPR (Biacore)
Description: (§1) The BIACORE assay (Biacore, Inc, Piscataway, N.J.) determined the affinity of antibodies or DVD-Ig with kinetic measurements of on-rate and off-rate constants. Binding of antibodies or DVD-Ig proteins to a target antigen (for example, a purified recombinant target antigen) was determined by surface plasmon resonance-based measurements with a Biacore®1000 or 3000 instrument (Biacore® AB, Uppsala, Sweden) using running HBS-EP (10 mM HEPES [pH 7.4], 150 mM NaCl, 3 mM EDTA, and 0.005% surfactant P20) at 25° C. All chemicals were obtained from Biacore® AB (Uppsala, Sweden) or otherwise from a different source as described in the text. For example, approximately 5000 RU of goat anti-mouse IgG, (Fcγ), fragment specific polyclonal antibody (Pierce Biotechnology Inc, Rockford, Ill.) diluted in 10 mM sodium acetate (pH 4.5) was directly immobilized across a CM5 research grade biosensor chip using a standard amine coupling kit according to manufacturer's instructions and procedures at 25 μg/ml. Unreacted moieties on the biosensor surface were blocked with ethanolamine. Modified carboxymethyl dextran surface in flowcell 2 and 4 was used as a reaction surface. Unmodified carboxymethyl dextran without goat anti-mouse IgG in flow cell 1 and 3 was used as the reference surface. For kinetic analysis, rate equations derived from the 1:1 Langmuir binding model were fitted simultaneously to association and dissociation phases of all eight injections (using global fit analysis) with the use of Biaevaluation 4.0.1 software. Purified antibodies or DVD-Ig proteins were diluted in HEPES-buffered saline for capture across goat anti-mouse IgG specific reaction surfaces. Antibodies or DVD-Ig proteins to be captured as a ligand (25 μg/ml) were injected over reaction matrices at a flow rate of 5 μl/minute. The association and dissociation rate constants, kₒₙ (M⁻¹s⁻¹) and koff (s⁻¹) were determined under a continuous flow rate of 25 μl/minute. Rate constants were derived by making kinetic binding measurements at different antigen concentrations ranging from 10-200 nM. The equilibrium dissociation constant (M) of the reaction between antibodies or DVD-Ig proteins and the target antigen was then calculated from the kinetic rate constants by the following formula: KD=koff/kₒₙ. Binding was recorded as a function of time and kinetic rate constants were calculated.

**Q.** With B1 as the binder, how does the binding read?
**A.** binds

**Q.** B2 was tested. Which binding did it give?
**A.** binds

**Q.** Which binding does the source give for B3 here?
**A.** binds

**Q.** B4 was tested. Which binding did it give?
**A.** binds

**Q.** Which binding does the source give for B5 here?
**A.** binds

**Q.** With B6 as the binder, how does the binding read?
**A.** binds

**Q.** With B7 as the binder, how does the binding read?
**A.** binds

molecular target: T1, Recombinant Human IL-17; experiment: SPR (Biacore)
Description: as §1

**Q.** B8 was tested. Which binding did it give?
**A.** binds

**Q.** Which binding does the source give for B9 here?
**A.** binds

**Q.** How did the binding turn out when B10 was run?
**A.** binds

**Q.** For B1, which binding is on record?
**A.** binds

**Q.** For B2, which binding is on record?
**A.** binds

**Q.** How did the binding turn out when B3 was run?
**A.** binds

**Q.** How did the binding turn out when B4 was run?
**A.** binds

**Q.** How did the binding turn out when B5 was run?
**A.** binds

**Q.** B6 was tested. Which binding did it give?
**A.** binds

**Q.** Which binding does the source give for B7 here?
**A.** binds
